From PubChem BioAssay AID2762 (National Center for Advancing Translational Sciences (NCATS), 2010)
This list was built around the results that the source calls inconclusive (neither active nor inactive); the mix of calls is not that of the screen. A potency beside an inconclusive call is a rough fit, not a confirmed value. Active and inactive are the calls of the source. Calls follow the shape of the dose curve; as a rule, active = well fitted inhibition curve with a large enough effect; inconclusive = small, poorly fitted or top-dose-only effect, or effect the other way; inactive = no such curve, though single readings can be large or run the other way.

Protein sequences, listed by entry. Tags and fused reporters are not part of them. Lines headed by an entry give the natural chain unless they say otherwise; changes in a name come on top.
UniProt P51450: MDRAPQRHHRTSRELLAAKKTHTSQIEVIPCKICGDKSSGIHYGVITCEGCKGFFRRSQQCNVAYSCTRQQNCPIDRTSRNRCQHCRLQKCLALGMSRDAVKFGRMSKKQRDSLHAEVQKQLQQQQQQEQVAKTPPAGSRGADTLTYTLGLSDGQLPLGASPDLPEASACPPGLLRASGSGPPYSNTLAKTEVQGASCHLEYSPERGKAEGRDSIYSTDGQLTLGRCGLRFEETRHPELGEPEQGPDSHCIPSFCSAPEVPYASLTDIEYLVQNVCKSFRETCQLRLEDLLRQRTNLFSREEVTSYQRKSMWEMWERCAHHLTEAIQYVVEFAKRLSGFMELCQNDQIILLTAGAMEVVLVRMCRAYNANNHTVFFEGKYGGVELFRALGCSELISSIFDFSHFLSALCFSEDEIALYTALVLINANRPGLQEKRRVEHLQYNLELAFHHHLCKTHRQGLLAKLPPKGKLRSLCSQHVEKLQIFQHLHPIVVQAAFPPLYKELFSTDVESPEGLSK

Each compound was assayed against Nuclear receptor ROR-gamma (Mus musculus) (UniProt P51450) (assay: Concentration response confirmation assay for inhibitors of ROR gamma transcriptional activity). Conditions: Drosophila S2 Gal4-RORgamma UAS-luciferase, 20 h; series mostly up to 46.1 µM; activity change, negative = inhibition: at the top concentration.
Text: NIH Molecular Libraries Probe Production Network [MLPCN] NIH Chemical Genomics Center [NCGC] MLPCN Grant: R03 DA026211-01 Assay Provider: Dan Littman, New York University Assay Overview: The retinoic acid-related orphan receptor (ROR) gamma is a transcription factor that has a central role in the differentiation of Th17 cells, a subset of T helper cells that secrete the inflammatory cytokines IL-17, IL-17F, and IL-22. Th17 cells have been implicated in graft versus host disease, autoimmune disease and asthma. ROR gamma is induced in naive T helper cells in the presence of TGF-beta combined with IL-6, IL-21, or IL-23, and thereafter directs the expression of the Th17 lineage cytokines. To study the mechanism of action of ROR gamma, an insect cell-based assay was screened. This Drosophila Schneider cell line was stably transfected with two vectors: a gene expressing a fusion of the Gal4 DNA binding domain and ROR gamma transactivation domain under the control of the metallothionine promoter and a Photinus luciferase reporter regulated by the Gal4 binding site enhancer, UAS. […] Small molecule inhibitors of ROR gamma activity are detected by a decrease in luciferase reporter activity.
Assay Protocol Summary: For screening, 600 cells in 4 uL/well were dispensed into white solid 1536-well plates (Grenier) using a solenoid-based dispenser. Following transfer of 23 nL compound or DMSO vehicle by a pin tool, the plates were incubated 1 hr at ambient temperature, and 1 uL/well copper sulfate (700 uM final concentration) was added. The plates were centrifuged 15 s at 1000 RPM and incubated 20 hr at ambient temperature. After addition of 1.5 uL Photinus luciferase detection reagent, the plates were incubated 10 min at ambient temperature and then read by an ViewLux (Perkin Elmer) to detect luminescence. Keywords: NIH Roadmap, MLPCN, MLI, MLSMR, qHTS, NCGC, qHTS, nuclear hormone receptor, retinoic acid-related orphan receptor, ROR gamma

With `CCCCNS(=O)(=O)c1ccc(OCC(=O)N2CCN(Cc3ccc4c(c3)OCO4)CC2)cc1` as the compound, how does the Potency read?
The Potency was inconclusive: 7.91 µM [activator, partial curve].

`O=C(c1ccco1)c1cn(Cc2ccccc2Cl)c2ccccc12` was tested. Which Potency did it give?
The Potency was inconclusive: 31.5 µM [activator, partial curve, poor fit].

Which “activity change, negative = inhibition” value does the source give for `Cc1nc2ccccc2c(=O)n1-c1cc([N+](=O)[O-])cc([N+](=O)[O-])c1` here?
The value was inactive: 39.9%.

With `O=C(Nc1ncc(Cc2ccccc2)s1)C1=NCCN1` as the compound, how does the Potency read?
The Potency was active: 9.96 µM.

With `Cc1cc(S(=O)(=O)NC(C)C)ccc1OCC(=O)N1CCN(Cc2ccc3c(c2)OCO3)CC1` as the compound, how does the Potency read?
Its Potency is inconclusive: 2.81 µM [activator, full curve].

With `COc1cc(C(=O)N/N=C/C23CC[C@@H](O)CC2(O)CC[C@@H]2[C@@H]3CCC3(C)C(C4=CC(=O)OC4)CCC23O)ccc1O` (stereo partly drawn) as the compound, how does the Potency read?
The Potency was inconclusive: 28.1 µM [activator, partial curve, poor fit].

For `Cn1ncnc2c(=O)n(C)c(=O)nc1-2`, which Potency is on record?
The Potency was active: 0.996 µM.

Which Potency does the source give for `CCCNS(=O)(=O)c1ccc(OCC(=O)N2CCN(Cc3ccc4c(c3)OCO4)CC2)cc1` here?
The Potency was inconclusive: 3.15 µM [activator, full curve].
